Test results from PMC7842083 (Molecular pharmaceutics, 2020).
Like-named read-outs stand apart in the source and are kept apart here.

Columns and labels:
in vitro = settings: pH 6
in vivo = settings: female, po; for Kp at 10 min: 30 mg/kg
[1] = oral gavage (caffeine 5, diazepam 30 mg/kg), mean ± SD, n=3
[2] = APP/PS1 (B6C3-Tg (APPswe, PSEN1dE9)85Dbo/Mmjax), mouse
[3] = WT littermates of APP/PS1, mouse

SMILES: CN1C(=O)CN=C(c2ccccc2)c2cc(Cl)ccc21 [Diazepam, diazepam]
- Papp at 120 min, 0.1 µCi/mL (in vitro; APP/PS1, mouse): 34.1 ± 9.2 ×10⁻⁶ cm/s
- Papp at 120 min (in vitro; WT, mouse): 29.1 ± 9.7 ×10⁻⁶ cm/s
- Kp (in vivo; [2]): 0.18 to 0.81
- Kp at 10 min (in vivo; [2]): 0.18 ± 0.05
- Kp (in vivo; [3]): 0.31 to 1.07
- Kp at 10 min (in vivo; [3]): 0.31 ± 0.07
- AUCbrain ([1]; APP/PS1 mice): 117.7 ± 18.2 ng·h/g
- AUCbrain ([1]; WT mice): 119.5 ± 5.5 ng·h/g
